From publication PMC8185089
These are yes or no findings as the source states them, for the method shown. In cells and extracts the contact can be indirect. Sequences can lack the tags named with a protein.

Chains of the proteins cited; added tags and fusions are not shown. Lines headed by an entry give the natural chain unless they say otherwise; changes in a name come on top.
UniProt Q9LZ25: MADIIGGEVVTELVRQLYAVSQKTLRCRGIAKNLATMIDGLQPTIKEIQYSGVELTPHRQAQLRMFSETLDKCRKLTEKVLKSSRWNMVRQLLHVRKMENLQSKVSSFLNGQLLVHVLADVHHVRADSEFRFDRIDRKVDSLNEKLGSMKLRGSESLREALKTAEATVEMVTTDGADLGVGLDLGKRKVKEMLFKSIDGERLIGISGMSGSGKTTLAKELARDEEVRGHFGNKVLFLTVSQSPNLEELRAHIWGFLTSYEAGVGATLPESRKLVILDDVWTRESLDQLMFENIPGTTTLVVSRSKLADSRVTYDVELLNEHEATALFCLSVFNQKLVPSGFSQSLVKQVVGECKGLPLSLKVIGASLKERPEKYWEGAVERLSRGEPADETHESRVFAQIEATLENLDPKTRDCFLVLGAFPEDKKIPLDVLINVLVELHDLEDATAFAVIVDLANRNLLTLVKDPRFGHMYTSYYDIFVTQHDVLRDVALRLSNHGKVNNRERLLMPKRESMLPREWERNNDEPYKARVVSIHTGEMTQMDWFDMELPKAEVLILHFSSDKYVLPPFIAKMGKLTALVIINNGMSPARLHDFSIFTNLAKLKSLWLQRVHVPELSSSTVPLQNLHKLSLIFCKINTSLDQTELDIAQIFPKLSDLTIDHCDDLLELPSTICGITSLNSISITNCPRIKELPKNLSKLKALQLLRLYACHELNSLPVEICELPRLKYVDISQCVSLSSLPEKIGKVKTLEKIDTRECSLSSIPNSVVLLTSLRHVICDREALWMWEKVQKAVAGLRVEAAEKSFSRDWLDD

Biological target: ADR1-L2-StrepII-3xHA (ADR1-L2-SH) (Arabidopsis thaliana) (UniProt Q9LZ25)
Assay: co-IP; anti-HA affinity matrix IP of the HA-tagged RNL from N. benthamiana epss leaf extracts, anti-FLAG blot; the RNL co-expressed with EDS1-FLAG (or variant) and SAG101-FLAG by Agrobacteria for 48 h, then Pf0-1 XopQ (OD600 0.3), samples at 8-12 hpi; 100 mM Tris-HCl pH 7.5, 300 mM NaCl, 5 mM MgCl2, 0.5% NP-40, 4 °C

B1: EDS1-3xFLAG (EDS1-FLAG) (protein, UniProt Q9SU72 1-623)
chain: MAFEALTGINGDLITRSWSASKQAYLTERYHKEEAGAVVIFAFQPSFSEKDFFDPDNKSSFGEIKLNRVQFPCMRKIGKGDVATVNEAFLKNLEAIIDPRTSFQASVEMAVRSRKQIVFTGHSSGGATAILATVWYLEKYFIRNPNVYLEPRCVTFGAPLVGDSIFSHALGREKWSRFFVNFVSRFDIVPRIMLARKASVEETLPHVLAQLDPRKSSVQESEQRITEFYTRVMRDTSTVANQAVCELTGSAEAFLETLSSFLELSPYRPAGTFVFSTEKRLVAVNNSDAILQMLFYTSQASDEQEWSLIPFRSIRDHHSYEELVQSMGKKLFNHLDGENSIESTLNDLGVSTRGRQYVQAALEEEKKRVENQKKIIQVIEQERFLKKLAWIEDEYKPKCQAHKNGYYDSFKVSNEENDFKANVKRAELAGVFDEVLGLMKKCQLPDEFEGDIDWIKLATRYRRLVEPLDIANYHRHLKNEDTGPYMKRGRPTRYIYAQRGYEHYILKPNGMIAEDVFWNKVNGLNLGLQLEEIQETLKNSGSECGSCFWAEVEELKGKPYEEVEVRVKTLEGMLGEWITDGEVDDKEIFLEGSTFRKWWITLPKNHKSHSPLRDYMMDEITDT
- binding: no binding
